This is one part of the list.
What was measured:
Assay in all cases: glycan array binding signal (z-score within array); higher = stronger binding
Settings in all cases: glycan notation: IUPAC condensed, linker removed
[1] = molecular target: Gal(b1-4)GlcNAc(b1-2)[Gal(b1-4)GlcNAc(b1-6)]Man(a1-6)[GlcNAc(b1-4)][Gal(b1-4)GlcNAc(b1-2)Man(a1-3)]Man(b1-4)GlcNAc(b1-4)GlcNAc
Summary of the method: (§1)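 Glycan array data were curated from 3228 arrays in the Consortium for Functional Glycomics database and kept only where the protein sequence was available. Glycan names were converted to IUPAC-condensed notation, and columns mapping to the same glycan were averaged. The binding signal is a within-array Z-score, averaged across arrays of the same protein sequence at different concentrations or buffers and across linkers. Negative Z-scores can be read as non-binding.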

[2] = molecular target: Gal(b1-4)GlcNAc(b1-2)[Gal(b1-4)GlcNAc(b1-6)]Man(a1-6)[GlcNAc(b1-4)][Gal(b1-4)GlcNAc(b1-2)[Gal(b1-4)GlcNAc(b1-4)]Man(a1-3)]Man(b1-4)GlcNAc(b1-4)[Fuc(a1-6)]GlcNAc
Summary of the method: as §1

[3] = molecular target: Gal(b1-4)GlcNAc(b1-3)Gal(b1-3)GalNAc
Summary of the method: as §1

[4] = molecular target: Gal(b1-4)GlcNAc(b1-3)Gal(b1-3)GlcNAc
Summary of the method: as §1

[5] = molecular target: Gal(b1-4)GlcNAc(b1-3)Gal(b1-4)Glc
Summary of the method: as §1

[6] = molecular target: Gal(b1-4)GlcNAc(b1-3)Gal(b1-4)GlcNAc
Summary of the method: as §1

[7] = molecular target: Gal(b1-4)GlcNAc(b1-3)Gal(b1-4)GlcNAc(b1-2)Man(a1-3)[Gal(b1-4)GlcNAc(b1-3)Gal(b1-4)GlcNAc(b1-2)Man(a1-6)]Man(b1-4)GlcNAc(b1-4)GlcNAc
Summary of the method: as §1

[8] = molecular target: Gal(b1-4)GlcNAc(b1-3)Gal(b1-4)GlcNAc(b1-2)Man(a1-3)[Gal(b1-4)GlcNAc(b1-3)Gal(b1-4)GlcNAc(b1-2)Man(a1-6)]Man(b1-4)GlcNAc(b1-4)[Fuc(a1-6)]GlcNAc
Summary of the method: as §1

[9] = molecular target: Gal(b1-4)GlcNAc(b1-3)Gal(b1-4)GlcNAc(b1-2)[Gal(b1-4)GlcNAc(b1-3)Gal(b1-4)GlcNAc(b1-6)]Man(a1-6)[Gal(b1-4)GlcNAc(b1-3)Gal(b1-4)GlcNAc(b1-2)Man(a1-3)]Man(b1-4)GlcNAc(b1-4)GlcNAc
Summary of the method: as §1

[10] = molecular target: Gal(b1-4)GlcNAc(b1-3)Gal(b1-4)GlcNAc(b1-2)[Gal(b1-4)GlcNAc(b1-3)Gal(b1-4)GlcNAc(b1-6)]Man(a1-6)[Gal(b1-4)GlcNAc(b1-3)Gal(b1-4)GlcNAc(b1-2)Man(a1-3)]Man(b1-4)GlcNAc(b1-4)[Fuc(a1-6)]GlcNAc
Summary of the method: as §1

[11] = molecular target: Gal(b1-4)GlcNAc(b1-3)Gal(b1-4)GlcNAc(b1-3)Gal(b1-4)GlcNAc
Summary of the method: as §1

[12] = molecular target: Gal(b1-4)GlcNAc(b1-3)Gal(b1-4)GlcNAc(b1-3)Gal(b1-4)GlcNAc(b1-2)Man(a1-3)[Gal(b1-4)GlcNAc(b1-3)Gal(b1-4)GlcNAc(b1-3)Gal(b1-4)GlcNAc(b1-2)Man(a1-6)]Man(b1-4)GlcNAc(b1-4)GlcNAc
Summary of the method: as §1

[13] = molecular target: Gal(b1-4)GlcNAc(b1-3)Gal(b1-4)GlcNAc(b1-3)Gal(b1-4)GlcNAc(b1-2)Man(a1-3)[Gal(b1-4)GlcNAc(b1-3)Gal(b1-4)GlcNAc(b1-3)Gal(b1-4)GlcNAc(b1-2)Man(a1-6)]Man(b1-4)GlcNAc(b1-4)[Fuc(a1-6)]GlcNAc
Summary of the method: as §1

[14] = molecular target: Gal(b1-4)GlcNAc(b1-3)Gal(b1-4)GlcNAc(b1-3)Gal(b1-4)GlcNAc(b1-2)[Gal(b1-4)GlcNAc(b1-3)Gal(b1-4)GlcNAc(b1-3)Gal(b1-4)GlcNAc(b1-6)]Man(a1-6)[Gal(b1-4)GlcNAc(b1-3)Gal(b1-4)GlcNAc(b1-3)Gal(b1-4)GlcNAc(b1-2)Man(a1-3)]Man(b1-4)GlcNAc(b1-4)[Fuc(a1-6)]GlcNAc
Summary of the method: as §1

[15] = molecular target: Gal(b1-4)GlcNAc(b1-3)Gal(b1-4)GlcNAc(b1-3)Gal(b1-4)GlcNAc(b1-3)Gal(b1-4)GlcNAc(b1-2)Man(a1-3)[Gal(b1-4)GlcNAc(b1-3)Gal(b1-4)GlcNAc(b1-3)Gal(b1-4)GlcNAc(b1-3)Gal(b1-4)GlcNAc(b1-2)Man(a1-6)]Man(b1-4)GlcNAc(b1-4)GlcNAc
Summary of the method: as §1

[16] = molecular target: Gal(b1-4)GlcNAc(b1-3)Gal(b1-4)GlcNAc(b1-3)Gal(b1-4)GlcNAc(b1-3)Gal(b1-4)GlcNAc(b1-2)Man(a1-3)[Gal(b1-4)GlcNAc(b1-3)Gal(b1-4)GlcNAc(b1-3)Gal(b1-4)GlcNAc(b1-3)Gal(b1-4)GlcNAc(b1-2)Man(a1-6)]Man(b1-4)GlcNAc(b1-4)[Fuc(a1-6)]GlcNAc
Summary of the method: as §1

[17] = molecular target: Gal(b1-4)GlcNAc(b1-3)Gal(b1-4)GlcNAc(b1-3)Gal(b1-4)GlcNAc(b1-3)Gal(b1-4)GlcNAc(b1-2)[Gal(b1-4)GlcNAc(b1-3)Gal(b1-4)GlcNAc(b1-3)Gal(b1-4)GlcNAc(b1-3)Gal(b1-4)GlcNAc(b1-6)]Man(a1-6)[Gal(b1-4)GlcNAc(b1-3)Gal(b1-4)GlcNAc(b1-3)Gal(b1-4)GlcNAc(b1-3)Gal(b1-4)GlcNAc(b1-2)Man(a1-3)]Man(b1-4)GlcNAc(b1-4)[Fuc(a1-6)]GlcNAc
Summary of the method: as §1

[18] = molecular target: Gal(b1-4)GlcNAc(b1-3)Gal(b1-4)GlcNAc(b1-3)Gal(b1-4)GlcNAc(b1-3)Gal(b1-4)GlcNAc(b1-3)Gal(b1-4)GlcNAc(b1-2)Man(a1-3)[Gal(b1-4)GlcNAc(b1-3)Gal(b1-4)GlcNAc(b1-3)Gal(b1-4)GlcNAc(b1-3)Gal(b1-4)GlcNAc(b1-3)Gal(b1-4)GlcNAc(b1-2)Man(a1-6)]Man(b1-4)GlcNAc(b1-4)GlcNAc
Summary of the method: as §1

[19] = molecular target: Gal(b1-4)GlcNAc(b1-3)Gal(b1-4)GlcNAc(b1-3)Gal(b1-4)GlcNAc(b1-3)Gal(b1-4)GlcNAc(b1-3)Gal(b1-4)GlcNAc(b1-2)Man(a1-3)[Gal(b1-4)GlcNAc(b1-3)Gal(b1-4)GlcNAc(b1-3)Gal(b1-4)GlcNAc(b1-3)Gal(b1-4)GlcNAc(b1-3)Gal(b1-4)GlcNAc(b1-2)Man(a1-6)]Man(b1-4)GlcNAc(b1-4)[Fuc(a1-6)]GlcNAc
Summary of the method: as §1

[20] = molecular target: Gal(b1-4)GlcNAc(b1-3)Gal(b1-4)GlcNAc(b1-3)Gal(b1-4)GlcNAc(b1-3)Gal(b1-4)GlcNAc(b1-3)Gal(b1-4)GlcNAc(b1-2)[Gal(b1-4)GlcNAc(b1-3)Gal(b1-4)GlcNAc(b1-3)Gal(b1-4)GlcNAc(b1-3)Gal(b1-4)GlcNAc(b1-3)Gal(b1-4)GlcNAc(b1-6)]Man(a1-6)[Gal(b1-4)GlcNAc(b1-3)Gal(b1-4)GlcNAc(b1-3)Gal(b1-4)GlcNAc(b1-3)Gal(b1-4)GlcNAc(b1-3)Gal(b1-4)GlcNAc(b1-2)Man(a1-3)]Man(b1-4)GlcNAc(b1-4)[Fuc(a1-6)]GlcNAc
Summary of the method: as §1

[21] = molecular target: Gal(b1-4)GlcNAc(b1-3)Gal(b1-4)GlcNAc(b1-3)Gal(b1-4)GlcNAc(b1-3)Gal(b1-4)GlcNAc(b1-3)Gal(b1-4)GlcNAc(b1-3)Gal(b1-4)GlcNAc(b1-2)Man(a1-3)[Gal(b1-4)GlcNAc(b1-3)Gal(b1-4)GlcNAc(b1-3)Gal(b1-4)GlcNAc(b1-3)Gal(b1-4)GlcNAc(b1-3)Gal(b1-4)GlcNAc(b1-3)Gal(b1-4)GlcNAc(b1-2)Man(a1-6)]Man(b1-4)GlcNAc(b1-4)GlcNAc
Summary of the method: as §1

[22] = molecular target: Gal(b1-4)GlcNAc(b1-3)Gal(b1-4)GlcNAc(b1-3)GalNAc
Summary of the method: as §1

[23] = molecular target: Gal(b1-4)GlcNAc(b1-3)Gal(b1-4)GlcNAc(b1-3)[Gal(b1-4)GlcNAc(b1-3)Gal(b1-4)GlcNAc(b1-6)]GalNAc
Summary of the method: as §1

B1: pilr alpha (protein)
chain: MLYGVTQPKHLSASMGGSVEIPFSFYYPWELATAPDVRISWRRGHFHRQSFYSTRPPSIHKDYVNRLFLNWTEGQKSGFLRISNLQKQDQSVYFCRVELDTRSSGRQQWQSIEGTKLSIT
- glycan array binding signal (z-score) [1]: 0.049
- glycan array binding signal (z-score) [2]: 0.011
- glycan array binding signal (z-score) [3]: -0.279
- glycan array binding signal (z-score) [4]: -0.421
- glycan array binding signal (z-score) [5]: -0.15
- glycan array binding signal (z-score) [6]: -0.268
- glycan array binding signal (z-score) [7]: 1.41
- glycan array binding signal (z-score) [8]: 0.273
- glycan array binding signal (z-score) [9]: -0.209
- glycan array binding signal (z-score) [10]: 0.377
- glycan array binding signal (z-score) [11]: -0.614
- glycan array binding signal (z-score) [12]: 0.361
- glycan array binding signal (z-score) [13]: 0.208
- glycan array binding signal (z-score) [14]: 0.388
- glycan array binding signal (z-score) [15]: 0.167
- glycan array binding signal (z-score) [16]: 0.569
- glycan array binding signal (z-score) [17]: 2.72
- glycan array binding signal (z-score) [18]: 0.101
- glycan array binding signal (z-score) [19]: 0.421
- glycan array binding signal (z-score) [20]: 1.59
- glycan array binding signal (z-score) [21]: 0.681
- glycan array binding signal (z-score) [22]: -0.204
- glycan array binding signal (z-score) [23]: 0.527

— the supplement of paper PMC8728848
